Source: PMC5201015
No constants are given. Whether binding was seen depends on the method and setting. In cells and extracts the contact can be indirect. Binding can be weak; no strength is given.

The chains behind the UniProt entries cited, without tags or fusion partners. Where a name states a change or a piece, a line headed by the entry shows the natural chain unless it says otherwise.
UniProt Q8IXJ6: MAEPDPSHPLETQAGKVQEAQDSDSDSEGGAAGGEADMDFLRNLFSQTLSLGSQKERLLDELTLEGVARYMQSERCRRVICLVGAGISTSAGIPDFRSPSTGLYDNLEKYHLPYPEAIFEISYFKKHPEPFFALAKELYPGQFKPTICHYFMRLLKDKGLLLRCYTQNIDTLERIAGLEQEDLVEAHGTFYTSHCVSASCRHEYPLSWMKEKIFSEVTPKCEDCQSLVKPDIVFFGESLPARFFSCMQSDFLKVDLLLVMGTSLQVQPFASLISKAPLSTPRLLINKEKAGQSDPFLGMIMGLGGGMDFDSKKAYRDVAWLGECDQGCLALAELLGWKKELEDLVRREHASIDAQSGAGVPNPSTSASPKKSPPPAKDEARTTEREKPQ
UniProt Q13547: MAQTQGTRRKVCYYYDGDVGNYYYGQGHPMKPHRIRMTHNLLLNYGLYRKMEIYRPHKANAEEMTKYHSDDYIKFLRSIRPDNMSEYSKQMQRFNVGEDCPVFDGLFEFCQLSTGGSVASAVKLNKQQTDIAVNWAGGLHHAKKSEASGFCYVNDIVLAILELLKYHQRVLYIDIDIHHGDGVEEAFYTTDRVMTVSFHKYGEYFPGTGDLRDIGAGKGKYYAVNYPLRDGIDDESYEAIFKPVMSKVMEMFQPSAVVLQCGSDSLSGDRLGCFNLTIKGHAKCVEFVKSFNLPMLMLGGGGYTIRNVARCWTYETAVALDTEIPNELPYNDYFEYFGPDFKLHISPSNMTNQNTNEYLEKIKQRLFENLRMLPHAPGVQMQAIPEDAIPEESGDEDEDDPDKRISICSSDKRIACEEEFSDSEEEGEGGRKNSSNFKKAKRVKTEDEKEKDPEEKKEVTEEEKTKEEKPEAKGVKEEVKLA
UniProt P18754: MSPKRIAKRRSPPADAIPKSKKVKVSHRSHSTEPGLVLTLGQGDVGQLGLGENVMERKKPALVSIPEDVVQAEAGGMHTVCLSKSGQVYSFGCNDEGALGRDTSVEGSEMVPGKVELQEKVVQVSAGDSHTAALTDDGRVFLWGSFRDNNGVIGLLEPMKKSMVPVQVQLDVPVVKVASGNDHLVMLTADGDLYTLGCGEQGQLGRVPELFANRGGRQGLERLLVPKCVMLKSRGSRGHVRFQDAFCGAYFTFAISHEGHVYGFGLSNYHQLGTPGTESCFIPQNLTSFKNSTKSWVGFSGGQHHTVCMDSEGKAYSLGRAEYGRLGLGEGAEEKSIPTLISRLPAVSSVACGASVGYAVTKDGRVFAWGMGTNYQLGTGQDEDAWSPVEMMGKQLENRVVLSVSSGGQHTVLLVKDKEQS
UniProt Q15003: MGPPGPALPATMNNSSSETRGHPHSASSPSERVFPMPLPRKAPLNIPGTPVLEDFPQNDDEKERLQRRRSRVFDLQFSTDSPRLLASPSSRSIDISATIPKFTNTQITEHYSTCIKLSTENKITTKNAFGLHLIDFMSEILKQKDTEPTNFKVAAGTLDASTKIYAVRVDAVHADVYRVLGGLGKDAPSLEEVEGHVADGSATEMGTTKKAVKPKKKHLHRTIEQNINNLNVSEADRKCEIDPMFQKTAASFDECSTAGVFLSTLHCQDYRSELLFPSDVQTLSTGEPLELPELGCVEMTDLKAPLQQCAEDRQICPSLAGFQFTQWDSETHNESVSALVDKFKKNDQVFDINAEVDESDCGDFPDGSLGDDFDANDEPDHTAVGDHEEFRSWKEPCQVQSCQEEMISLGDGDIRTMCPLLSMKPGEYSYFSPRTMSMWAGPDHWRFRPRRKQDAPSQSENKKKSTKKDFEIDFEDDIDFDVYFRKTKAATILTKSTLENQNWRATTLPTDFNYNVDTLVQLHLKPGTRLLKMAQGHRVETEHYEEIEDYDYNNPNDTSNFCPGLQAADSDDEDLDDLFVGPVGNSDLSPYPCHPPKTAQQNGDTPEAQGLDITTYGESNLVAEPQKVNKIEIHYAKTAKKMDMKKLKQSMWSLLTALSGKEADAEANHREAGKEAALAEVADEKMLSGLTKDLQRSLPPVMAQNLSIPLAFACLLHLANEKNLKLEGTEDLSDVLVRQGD
UniProt P53618: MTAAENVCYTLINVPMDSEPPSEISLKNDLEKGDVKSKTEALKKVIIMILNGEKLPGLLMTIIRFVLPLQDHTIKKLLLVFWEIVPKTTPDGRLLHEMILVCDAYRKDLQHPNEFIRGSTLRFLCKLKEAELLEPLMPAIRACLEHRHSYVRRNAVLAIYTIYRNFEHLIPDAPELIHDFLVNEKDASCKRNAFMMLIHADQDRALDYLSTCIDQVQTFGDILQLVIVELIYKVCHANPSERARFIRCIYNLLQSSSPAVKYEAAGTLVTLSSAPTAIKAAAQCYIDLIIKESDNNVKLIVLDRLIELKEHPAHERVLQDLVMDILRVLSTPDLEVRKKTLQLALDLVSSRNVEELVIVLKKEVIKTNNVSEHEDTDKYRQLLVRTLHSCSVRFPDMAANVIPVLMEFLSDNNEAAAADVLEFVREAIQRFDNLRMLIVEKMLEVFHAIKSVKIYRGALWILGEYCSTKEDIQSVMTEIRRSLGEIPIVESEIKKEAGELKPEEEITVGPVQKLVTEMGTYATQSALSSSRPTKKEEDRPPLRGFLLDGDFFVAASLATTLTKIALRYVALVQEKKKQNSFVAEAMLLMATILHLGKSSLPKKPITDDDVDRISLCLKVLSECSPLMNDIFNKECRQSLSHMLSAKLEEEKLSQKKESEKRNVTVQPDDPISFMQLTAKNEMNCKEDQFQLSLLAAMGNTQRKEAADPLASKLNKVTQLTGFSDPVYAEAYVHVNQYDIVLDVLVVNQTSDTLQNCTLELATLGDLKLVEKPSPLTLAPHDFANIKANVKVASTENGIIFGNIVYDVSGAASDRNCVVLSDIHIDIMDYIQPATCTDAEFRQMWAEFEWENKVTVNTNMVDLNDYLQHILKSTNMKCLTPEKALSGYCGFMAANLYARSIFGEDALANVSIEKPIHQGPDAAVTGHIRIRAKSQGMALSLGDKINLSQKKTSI

What follows are molecules tested against SIRT2 (as used in the co-immunoprecipitations of Fig. S2F–H) (UniProt Q8IXJ6) (assay: co-IP; co-immunoprecipitation from HEK293 cells (Fig. S2F–H); bait and tags not told).

Molecule | binding
HDAC1 (co-immunoprecipitation of Fig. S2F–H) (from UniProt Q13547 1-482) (enzyme) | binds
RCC1 (co-immunoprecipitation of Fig. S2F–H) (from UniProt P18754 1-421) | binds
condensin subunit CND2 (also known as NCAPH) (co-immunoprecipitation of Fig. S2F–H) (from UniProt Q15003 1-741) | binds

Next, values leading:

binding | Molecule
binds | COPB1 (co-immunoprecipitation of Fig. S2F–H) (from UniProt P53618 1-953)
binds | COPG2 (co-immunoprecipitation of Fig. S2F–H) (protein, UniProt Q9UBF2 1-871) MIKKFDKKDEESGSGSNPFQHLEKSAVLQEARIFNETPINPRRCLHILTKILYLLNQGEHFGTTEATEAFFAMTRLFQSNDQTLRRMCYLTIKEMATISEDVIIVTSSLTKDMTGKEDVYRGPAIRALCRITDGTMLQAIERYMKQAIVDKVSSVSSSALVSSLHMMKISYDVVKRWINEAQEAASSDNIMVQYHALGVLYHLRKNDRLAVSKMLNKFTKSGLKSQFAYCMLIRIASRLLKETEDGHESPLFDFIESCLRNKHEMVIYEAASAIIHLPNCTARELAPAVSVLQLFCSSPKPALRYAAVRTLNKVAMKHPSAVTACNLDLENLITDSNRSIATLAITTLLKTGSESSVDRLMKQISSFVSEISDEFKVVVVQAISALCQKYPRKHSVMMTFLSNMLRDDGGFEYKRAIVDCIISIVEENPESKEAGLAHLCEFIEDCEHTVLATKILHLLGKEGPRTPVPSKYIRFIFNRVVLENEAVRAAAVSALAKFGAQNESLLPSILVLLQRCMMDTDDEVRDRATFYLNVLQQRQMALNATYIFNGLTVSVPGMEKALHQYTLEPSEKPFDMKSIPLAMAPVFEQKAEITLVATKPEKLAPSRQDIFQEQLAAIPEFLNIGPLFKSSEPVQLTEAETEYFVRCIKHMFTNHIVFQFDCTNTLNDQLLEKVTVQMEPSDSYEVLSCIPAPSLPYNQPGICYTLVRLPDDDPTAVAGSFSCTMKFTVRDCDPNTGVPDEDGYDDEYVLEDLEVTVSDHIQKVLKPNFAAAWEEVGDTFEKEETFALSSTKTLEEAVNNIITFLGMQPCERSDKVPENKNSHSLYLAGIFRGGYDLLVRSRLALADGVTMQVTVRSKERTPVDVILASVG
binds | kinetochore-associated protein SKAP (also known as KNSTRN) (co-immunoprecipitation of Fig. S2F–H) (protein, UniProt Q9Y448 1-316) MAAPEAPPLDRVFRTTWLSTECDSHPLPPSYRKFLFETQAADLAGGTTVAAGNLLNESEKDCGQDRRAPGVQPCRLVTMTSVVKTVYSLQPPSALSGGQPADTQTRATSKSLLPVRSKEVDVSKQLHSGGPENDVTKITKLRRENGQMKATDTATRRNVRKGYKPLSKQKSEEELKDKNQLLEAVNKQLHQKLTETQGELKDLTQKVELLEKFRDNCLAILESKGLDPALGSETLASRQESTTDHMDSMLLLETLQEELKLFNETAKKQMEELQALKVKLEMKEERVRFLEQQTLCNNQVNDLTTALKEMEQLLEM
